Assay results published in patent US20250283129A1, “PROCESS” (Sun Pharmaceutical Industries Australia Pty Limited, priority 2021, published 2025).
Changes are numbered by the printed parent chain. Numbers in names are those of the source. Some results were stated once for a whole list of compounds, not compound by compound.

B1: E259K: endogenous CODM variant with amino acid substitution E259K (protein, listed as Papaver somniferum)
chain: METPILIKLGNGLSIPSVQELAKLTLAEIPSRYTCTGESPLNNIGASVTDDETVPVIDLQNLLSPEPVVGKLELDKLHSACKEWGFFQLVNHGVDALLMDNIKSEIKGFFNLPMNEKTKYGQQDGDFEGFGQPYIESEDQRLDWTEVFSMLSLPLHLRKPHLFPELPLPFRETLESYLSKMKKLSTVVFEMLEKSLQLVEIKGMTDLFEDGLQTMRMNYYPPCPRPELVLGLTSHSDFSGLTILLQLNEVEGLQIRKEKRWISIKPLPDAFIVNVGDILEIMTNGIYRSVEHRAVVNSTKERLSIATFHDSKLESEIGPISSLVTPETPALFKRGRYEDILKENLSRKLDGKSFLDYMRM
B2: E259H: codeine 3-O-demethylase with amino acid substitution E259H (protein, listed as Papaver somniferum)
chain: B1 chain with K259H
B3: E259Q: codeine 3-O-demethylase with amino acid substitution E259Q (protein, listed as Papaver somniferum)
chain: B1 chain with K259Q
B4: E259A: codeine 3-O-demethylase with amino acid substitution E259A (protein, listed as Papaver somniferum)
chain: B1 chain with K259A
B5: E259S: codeine 3-O-demethylase with amino acid substitution E259S (protein, listed as Papaver somniferum)
chain: B1 chain with K259S
B6: 17M: codeine 3-O-demethylase with amino acid substitution I7M (protein, listed as Papaver somniferum)
chain: B1 chain with I7M, K259E
B7: Y357S: codeine 3-O-demethylase with amino acid substitution Y357S (protein, listed as Papaver somniferum)
chain: B1 chain with K259E, Y357S

Tested on: thebaine
Test: Whole cell biotransformation of thebaine to oripavine by E. coli cells expressing CODM variants
Assay type: cell-based
Conditions: morphine after 30 minutes and oripavine after 4 hours (product yield, both substrates)

| Molecule | reduction in product yield relative to WT CODM |
| --- | --- |
| B1 | at least 20% |
| B2 | at least 20% |
| B3 | at least 20% |
| B4 | at least 20% |
| B5 | at least 20% |
| B6 | ≥ 22% |
| B7 | ≥ 22% |
